Values as published with doi:10.1371/journal.pone.0140310, rounded.

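The test systems are human melanoma cell lines, treated with a pair of drugs for 72 h and then stained and imaged. The read-out is the fraction of cleaved-PARP-positive nuclei, in % of that fraction in the DMSO control; 200 means twice the control level of this apoptosis marker. Concentrations were fixed for each drug; these are the higher of two levels. The file gives one value for each pair and line, without errors, so small differences may be noise. Basal and induced levels differ widely between cell lines.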
This is part of the screen, not chosen by result.
An entry leaves out what has no value listed here.

Every entry is a combination with lapatinib at 4 µM: CS(=O)(=O)CCNCc1ccc(-c2ccc3ncnc(Nc4ccc(OCc5cccc(F)c5)c(Cl)c4)c3c2)o1

* C/C(O)=C(\C#N)C(=O)Nc1cc(Br)ccc1Br at 10 µM | SK-MEL-2: 99.9
* Oc1nc(-c2ccc(C(F)(F)F)cc2)nc2c1CSCC2 at 10 µM | SK-MEL-2: 48.5
* O=C(O)c1ccc(-c2c[nH]c3ncc(-c4ccccc4)cc23)cc1C1CCCC1 at 0.8 µM | WM1745: 76.3; SK-MEL-2: 111
* Cn1cnc2c(F)c(Nc3ccc(Br)cc3Cl)c(C(=O)NOCCO)cc21 at 0.075 µM | WM1745: 144; SK-MEL-2: 236
* CCN(CC)CCNC(=O)c1c(C)[nH]c(/C=C2\C(=O)Nc3ccc(F)cc32)c1C at 2 µM | WM1745: 225; SK-MEL-2: 83.2
* C[C@]12O[C@H](C[C@]1(O)CO)n1c3ccccc3c3c4c(c5c6ccccc6n2c5c31)CNC4=O at 0.02 µM | WM1745: 84.1; SK-MEL-2: 165
* CN(C)S(=O)(=O)c1ccc2c(c1)/C(=C/c1cc3c([nH]1)CCCC3)C(=O)N2 at 2 µM | WM1745: 139; SK-MEL-2: 93.6
* COc1ccc(-c2ccc3c(N4CCOCC4)nc(N4C[C@@H](C)O[C@@H](C)C4)nc3n2)cc1CO at 0.1 µM | SK-MEL-2: 89.1
* O=C(O)c1ccc2c(c1)nc(Nc1cccc(Cl)c1)c1ccncc12 at 2 µM | WM1745: 177; SK-MEL-2: 410
* CN1CCN(c2ccc3nc(-c4c(N)c5c(F)cccc5[nH]c4=O)[nH]c3c2)CC1 at 0.5 µM | WM1745: 164; SK-MEL-2: 245
* O=c1[nH]nc(Sc2ncc([N+](=O)[O-])s2)n1-c1ccc2c(c1)OCCO2 at 1 µM | WM1745: 109; SK-MEL-2: 97.8
* c1cc(-c2cnn3cc(-c4ccc(OCCN5CCCCC5)cc4)cnc23)ccn1 at 2 µM | SK-MEL-2: 55.3
* C[C@@H]1CCN(C(=O)CC#N)C[C@@H]1N(C)c1ncnc2[nH]ccc12 at 5 µM | WM1745: 78.7; SK-MEL-2: 190
* Cc1cc(SCc2sc(-c3ccc(C(F)(F)F)c(F)c3)nc2C)ccc1OCC(=O)O at 10 µM | SK-MEL-2: 138
* CC(C)CCN1c2nc(Nc3cc(F)c(O)c(F)c3)ncc2N(C)C(=O)C1C (centres unmarked) at 1 µM | SK-MEL-2: 105

Some entries from above, unchanged:

* O=C(O)c1ccc2c(c1)nc(Nc1cccc(Cl)c1)c1ccncc12 at 2 µM : WM1745: 177; SK-MEL-2: 410
* CN1CCN(c2ccc3nc(-c4c(N)c5c(F)cccc5[nH]c4=O)[nH]c3c2)CC1 at 0.5 µM : WM1745: 164; SK-MEL-2: 245